The nature of this experiment: qHTS Assay for Modulators of Lamin A Splicing. The note with it: HeLa LMNA splicing GFP/RFP minigene ratio, 48 h. The essentials:
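S3 HeLa stable clones carrying a lamin A-EGFP splicing minigene plus DsRed2 were seeded at 600 cells/well in Opti-MEM with 2% FBS, pin-dosed and incubated 48 h at 37°C. Acumen cytometry (488 nm) gave the GFP/RFP total-intensity ratio.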

The mark [1] stands for this setting: measured here: RFP viability control channel.
[2] abbreviates: measured here: GFP splicing reporter channel.

Structures are written as SMILES. Some of the results follow. Shown are side measurements of this screen, not its main read-out; they come without a call. The list favours compounds with an active or inconclusive main result. Potencies come from curve fits of mixed quality, noted in brackets.

By AC50 is commonly meant the concentration at which the activity in the assay is half-maximal. On to `C(=N\c1nccs1)/c1cccnc1`, for which the half-maximal activity concentration (AC50) under setting [1] was 5.62 µM [rising, single point].
In the case of `COc1ccc(-c2cn(-c3ccc(OC)cc3)c3[n+]2-c2ccccc2CC3)cc1`, the AC50 under setting [1] is 3.98 µM [rising, full curve].
With `O=C(CN1C(=O)C2CCCCC2C1=O)Nc1nc(-c2ccccn2)cs1` (stereo not drawn), under setting [1], the half-maximal activity concentration (AC50) was 17.8 µM [rising, single point].
`O=C(Nc1cccc(O)c1)c1cc(S(=O)(=O)N2CCCC2)ccc1Cl`: the AC50 is, setting by setting: under setting [2], 22.4 µM [rising, single point]; under setting [1], 25.1 µM [rising, single point].
As to `O=C(Nc1ccc2nc(C3CC3)n(Cc3ccc(F)cc3)c(=O)c2c1)c1ccco1`, the concentration at half-maximal activity (AC50) by setting is: under setting [2], 35.5 µM [rising, single point]; under setting [1], 25.1 µM [rising, single point].
`Cc1ccc(OCC(=O)Nc2ccc(Cl)c(-c3nc4ccccc4[nH]3)c2)cc1C`: the AC50 under setting [2] is 35.5 µM [falling, single point].
With `O=c1c(-c2ccc(F)cc2)nc2cnc(Oc3cccc(Cl)c3)nc2n1C[C@H]1CCCO1`, the half-maximal activity concentration (AC50) under setting [2] is 14.1 µM [falling, partial curve, poor fit].
As to `COC(CNC(=S)Nc1ccc([N+](=O)[O-])cc1)OC`, the AC50 under setting [1] was 35.5 µM [rising, single point].
On to `COc1cc(/C=C/c2ccc3cccc([N+](=O)[O-])c3n2)ccc1OCC#N`, for which the half-maximal activity concentration (AC50) under setting [1] is 15.8 µM [rising, partial curve, poor fit].
Take `COc1cc(Cc2cnc(N)nc2N)cc(OC)c1OC`: the concentration at half-maximal activity (AC50) under setting [2] was 6.31 µM [rising, single point].
In the case of `O=C(c1ccc2[nH]c3c(c2c1)CCCC3)N1CCN(c2ccc(F)cc2)CC1`, the AC50 under setting [1] was 15.8 µM [rising, single point].
With `CC(=O)Nc1ccc(OCC(O)Cn2c(C)nc3ccccc32)cc1` (stereo not drawn), the concentration at half-maximal activity (AC50) under setting [1] was 35.5 µM [rising, single point].
Turning to `Cc1ccc(S(=O)(=O)Nc2nc3ccccc3nc2N2CCc3ccccc3C2)cc1`, the concentration at half-maximal activity (AC50) under setting [1] was 25.1 µM [falling, single point].
On to `COc1ccc(CNC(=O)COC(=O)c2n[nH]c3ccccc23)cc1OC`, for which the AC50 under setting [1] is 12.6 µM [rising, partial curve].
In the case of `CC1CCN(C(=O)/C(=C/c2ccccc2Cl)c2ccccc2)CC1`, the AC50 is 35.5 µM [rising, single point] under setting [2] and 35.5 µM [rising, single point] under setting [1].
Consider `CN(C)C(=O)c1ccc(-c2nc(Nc3ccncc3)c3ccccc3n2)cc1`, for which, under setting [1], the AC50 is 12.6 µM [rising, single point].
Still for that read-out and setting: the result for `Cc1ccc(CNC(=O)c2nc(-c3ccc(Cl)cc3)n3c2CCCCC3)cc1` reads 31.6 µM [rising, single point].
As for `CCOC(=O)c1c(C)oc2c1c(C(c1cccnc1)N1CCN(C)CC1)c(O)c1ccccc12` (stereo not drawn), under setting [2], the AC50 is 22.4 µM [falling, single point].
For the compound `Cc1ccc(N=Cc2cc3c(cc2O)OC(N)=C(C#N)C3c2ccccc2)cc1` (stereo not drawn), the AC50 runs as follows: under setting [2], 20 µM [falling, partial curve]; under setting [1], 6.31 µM [falling, single point].
For the compound `COc1cccc(/C=N/Nc2nc3ccccc3n3cnnc23)c1O`, under setting [1], the AC50 is 10 µM [rising, partial curve, poor fit].
As to `O=C(NCC1(c2ccccc2)CCCC1)c1ccc(Br)o1`, the AC50 by setting is: under setting [2], 8.91 µM [rising, partial curve, poor fit]; under setting [1], 17.8 µM [rising, partial curve].
On to `CCOC(=O)C1(Cc2cccc(OC)c2)CCN(Cc2cccc(O)c2)CC1`, for which the half-maximal activity concentration (AC50) runs as follows: under setting [2], 12.6 µM [falling, partial curve]; under setting [1], 12.6 µM [falling, partial curve].
Consider `CN(C)S(=O)(=O)c1cccc(NC(=O)c2ccncc2)c1`, for which, under setting [1], the half-maximal activity concentration (AC50) was 14.1 µM [rising, partial curve].
For `CCC(C)(C)n1nnnc1C(c1cccs1)N1CCN(Cc2ccccc2)CC1` (stereo not drawn), the half-maximal activity concentration (AC50) under setting [1] is 20 µM [rising, single point].
As to `C=CCc1cccc(/C=N/NC(=O)C(C)Nc2ccc(C)cc2)c1O` (stereo not drawn), the AC50 by setting is: under setting [2], 17.8 µM [rising, single point]; under setting [1], 35.5 µM [rising, single point].
Take `Nc1nc(-c2ccc(Cl)cc2Cl)cn1N`: the AC50 under setting [1] is 35.5 µM [rising, single point].
Take `CCCSc1nc2c(c(=O)n(C)c(=O)n2C)n1Cc1ccc(C)cc1`: the AC50 is, setting by setting: under setting [2], 10 µM [rising, partial curve]; under setting [1], 11.2 µM [rising, single point].
`CCCC(=O)NC(c1cccs1)c1cc([N+](=O)[O-])c2cccnc2c1O` (stereo not drawn): under setting [1], the AC50 was 3.98 µM [rising, full curve, poor fit].
Consider `COc1ccc(Cn2nnnc2CN2CCC(c3nc4ccccc4s3)CC2)cc1`, for which the AC50 was 12.6 µM [rising, partial curve] under setting [2] and 14.1 µM [rising, partial curve] under setting [1].
With `COCCCNCCOCCSc1ccc(Cl)cc1`, under setting [2], the concentration at half-maximal activity (AC50) is 12.6 µM [rising, single point].
With `Clc1cccc(CNc2nnnn2-c2ccccc2)c1`, the concentration at half-maximal activity (AC50) under setting [1] is 10 µM [rising, partial curve].
Regarding `Cc1cnc(C(=O)OCC(=O)c2csc(N3CCCCC3)n2)cn1`, the concentration at half-maximal activity (AC50) under setting [1] was 5.62 µM [rising, single point].
Take `Cc1cccc(NS(=O)(=O)c2ccc3c(c2)Cc2cc(S(=O)(=O)Nc4cccc(C)c4C)ccc2-3)c1C`: under setting [1], the half-maximal activity concentration (AC50) is 7.08 µM [rising, partial curve, poor fit].
As to `O=C(CCSCc1ccccc1F)N1CCN(c2ccc(Cl)cc2)CC1`, under setting [2], the concentration at half-maximal activity (AC50) is 0.00316 µM [falling, full curve, poor fit].
In the case of `COc1ccc(NC(=O)C(C)N2c3cccc4cccc(c34)S2(=O)=O)cc1OC` (stereo not drawn), the concentration at half-maximal activity (AC50) under setting [1] is 4.47 µM [rising, full curve].
For the compound `C/C(=N\NC(=O)CCc1ccccc1)C1C(=O)c2ccccc2C1=O`, the half-maximal activity concentration (AC50) is 1 µM [falling, full curve] under setting [2] and 11.2 µM [falling, partial curve] under setting [1].
`C=CCn1c(SCC(=O)N2CCc3ccccc3C2)nc2sc(C)c(C)c2c1=O`: under setting [1], the half-maximal activity concentration (AC50) was 17.8 µM [rising, single point].
For the compound `C/C(CCc1ccccc1)=N\NC(=O)c1ccccc1[N+](=O)[O-]`, under setting [1], the AC50 is 0.0398 µM [rising, full curve, poor fit].

Values taken from PubChem BioAssay AID1487 (National Center for Advancing Translational Sciences (NCATS), 2009).
